Results on six substances are retold here after paper PMC7275063.

Protein sequences, listed by entry. Tags and fused reporters are not part of them. Lines headed by an entry give the natural chain unless they say otherwise; changes in a name come on top.
UniProt Q6PHN9: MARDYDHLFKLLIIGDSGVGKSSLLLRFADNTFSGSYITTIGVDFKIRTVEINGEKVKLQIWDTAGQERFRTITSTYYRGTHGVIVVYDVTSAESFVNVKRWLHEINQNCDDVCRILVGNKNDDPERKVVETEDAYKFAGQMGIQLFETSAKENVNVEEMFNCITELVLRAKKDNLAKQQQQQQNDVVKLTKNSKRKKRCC
UniProt P62820: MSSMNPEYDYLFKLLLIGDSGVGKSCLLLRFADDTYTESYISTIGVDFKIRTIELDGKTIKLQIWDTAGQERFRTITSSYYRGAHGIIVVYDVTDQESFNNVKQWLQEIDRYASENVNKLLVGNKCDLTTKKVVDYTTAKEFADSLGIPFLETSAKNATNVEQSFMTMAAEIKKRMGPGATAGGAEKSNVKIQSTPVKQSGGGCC
UniProt Q15286: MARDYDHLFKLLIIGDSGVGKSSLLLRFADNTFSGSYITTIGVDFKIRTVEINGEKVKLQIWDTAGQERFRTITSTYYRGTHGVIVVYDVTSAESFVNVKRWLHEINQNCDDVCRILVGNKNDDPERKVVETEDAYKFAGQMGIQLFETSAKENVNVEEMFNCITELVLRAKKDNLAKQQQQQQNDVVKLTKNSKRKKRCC
UniProt O95248: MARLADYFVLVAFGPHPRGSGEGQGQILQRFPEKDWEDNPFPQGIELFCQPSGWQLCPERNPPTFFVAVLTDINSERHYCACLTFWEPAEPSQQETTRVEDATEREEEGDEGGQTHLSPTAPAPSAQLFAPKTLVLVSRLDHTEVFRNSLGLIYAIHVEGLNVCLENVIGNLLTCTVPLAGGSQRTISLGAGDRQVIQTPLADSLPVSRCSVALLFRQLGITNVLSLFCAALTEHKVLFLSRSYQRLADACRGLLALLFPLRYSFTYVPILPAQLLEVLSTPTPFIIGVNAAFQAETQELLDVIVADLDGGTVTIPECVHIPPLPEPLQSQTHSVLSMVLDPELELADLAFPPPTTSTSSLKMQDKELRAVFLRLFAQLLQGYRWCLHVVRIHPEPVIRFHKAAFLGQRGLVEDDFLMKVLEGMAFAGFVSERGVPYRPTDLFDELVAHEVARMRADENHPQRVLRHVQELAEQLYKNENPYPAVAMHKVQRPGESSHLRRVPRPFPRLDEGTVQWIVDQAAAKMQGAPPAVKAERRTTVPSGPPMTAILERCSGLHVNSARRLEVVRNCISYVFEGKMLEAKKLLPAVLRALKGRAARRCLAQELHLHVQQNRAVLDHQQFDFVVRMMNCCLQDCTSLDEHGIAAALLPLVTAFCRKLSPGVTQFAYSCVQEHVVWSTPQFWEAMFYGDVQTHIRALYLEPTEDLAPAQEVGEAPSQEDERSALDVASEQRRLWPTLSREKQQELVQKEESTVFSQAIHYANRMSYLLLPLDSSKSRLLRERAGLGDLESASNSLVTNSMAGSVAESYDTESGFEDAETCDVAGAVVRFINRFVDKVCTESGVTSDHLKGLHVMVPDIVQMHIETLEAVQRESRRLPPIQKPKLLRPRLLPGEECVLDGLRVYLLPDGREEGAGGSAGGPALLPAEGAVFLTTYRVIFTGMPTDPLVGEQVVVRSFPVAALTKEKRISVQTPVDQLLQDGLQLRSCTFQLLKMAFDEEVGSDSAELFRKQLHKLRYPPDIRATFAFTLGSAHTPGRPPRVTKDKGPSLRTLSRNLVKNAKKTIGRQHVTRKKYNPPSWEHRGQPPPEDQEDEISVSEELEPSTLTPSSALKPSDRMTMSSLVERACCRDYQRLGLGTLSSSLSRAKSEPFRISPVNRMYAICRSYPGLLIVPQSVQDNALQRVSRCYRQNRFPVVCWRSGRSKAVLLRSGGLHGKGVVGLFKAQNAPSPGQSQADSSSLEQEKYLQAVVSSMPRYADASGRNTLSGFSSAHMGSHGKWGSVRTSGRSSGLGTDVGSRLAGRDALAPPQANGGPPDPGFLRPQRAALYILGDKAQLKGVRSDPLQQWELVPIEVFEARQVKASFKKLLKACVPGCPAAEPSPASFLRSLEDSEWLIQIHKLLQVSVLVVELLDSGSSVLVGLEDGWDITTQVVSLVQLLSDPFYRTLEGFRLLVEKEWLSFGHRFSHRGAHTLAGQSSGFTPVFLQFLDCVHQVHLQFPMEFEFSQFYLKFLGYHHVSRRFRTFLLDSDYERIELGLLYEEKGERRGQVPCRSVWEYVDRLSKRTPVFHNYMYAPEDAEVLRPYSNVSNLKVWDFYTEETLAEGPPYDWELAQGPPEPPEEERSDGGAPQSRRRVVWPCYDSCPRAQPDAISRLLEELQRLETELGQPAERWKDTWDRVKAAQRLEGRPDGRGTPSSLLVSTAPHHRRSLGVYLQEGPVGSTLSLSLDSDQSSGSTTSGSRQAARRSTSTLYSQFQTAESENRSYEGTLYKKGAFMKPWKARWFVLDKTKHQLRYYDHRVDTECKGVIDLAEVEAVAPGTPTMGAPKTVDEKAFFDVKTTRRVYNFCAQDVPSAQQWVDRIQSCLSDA
UniProt Q86WG5: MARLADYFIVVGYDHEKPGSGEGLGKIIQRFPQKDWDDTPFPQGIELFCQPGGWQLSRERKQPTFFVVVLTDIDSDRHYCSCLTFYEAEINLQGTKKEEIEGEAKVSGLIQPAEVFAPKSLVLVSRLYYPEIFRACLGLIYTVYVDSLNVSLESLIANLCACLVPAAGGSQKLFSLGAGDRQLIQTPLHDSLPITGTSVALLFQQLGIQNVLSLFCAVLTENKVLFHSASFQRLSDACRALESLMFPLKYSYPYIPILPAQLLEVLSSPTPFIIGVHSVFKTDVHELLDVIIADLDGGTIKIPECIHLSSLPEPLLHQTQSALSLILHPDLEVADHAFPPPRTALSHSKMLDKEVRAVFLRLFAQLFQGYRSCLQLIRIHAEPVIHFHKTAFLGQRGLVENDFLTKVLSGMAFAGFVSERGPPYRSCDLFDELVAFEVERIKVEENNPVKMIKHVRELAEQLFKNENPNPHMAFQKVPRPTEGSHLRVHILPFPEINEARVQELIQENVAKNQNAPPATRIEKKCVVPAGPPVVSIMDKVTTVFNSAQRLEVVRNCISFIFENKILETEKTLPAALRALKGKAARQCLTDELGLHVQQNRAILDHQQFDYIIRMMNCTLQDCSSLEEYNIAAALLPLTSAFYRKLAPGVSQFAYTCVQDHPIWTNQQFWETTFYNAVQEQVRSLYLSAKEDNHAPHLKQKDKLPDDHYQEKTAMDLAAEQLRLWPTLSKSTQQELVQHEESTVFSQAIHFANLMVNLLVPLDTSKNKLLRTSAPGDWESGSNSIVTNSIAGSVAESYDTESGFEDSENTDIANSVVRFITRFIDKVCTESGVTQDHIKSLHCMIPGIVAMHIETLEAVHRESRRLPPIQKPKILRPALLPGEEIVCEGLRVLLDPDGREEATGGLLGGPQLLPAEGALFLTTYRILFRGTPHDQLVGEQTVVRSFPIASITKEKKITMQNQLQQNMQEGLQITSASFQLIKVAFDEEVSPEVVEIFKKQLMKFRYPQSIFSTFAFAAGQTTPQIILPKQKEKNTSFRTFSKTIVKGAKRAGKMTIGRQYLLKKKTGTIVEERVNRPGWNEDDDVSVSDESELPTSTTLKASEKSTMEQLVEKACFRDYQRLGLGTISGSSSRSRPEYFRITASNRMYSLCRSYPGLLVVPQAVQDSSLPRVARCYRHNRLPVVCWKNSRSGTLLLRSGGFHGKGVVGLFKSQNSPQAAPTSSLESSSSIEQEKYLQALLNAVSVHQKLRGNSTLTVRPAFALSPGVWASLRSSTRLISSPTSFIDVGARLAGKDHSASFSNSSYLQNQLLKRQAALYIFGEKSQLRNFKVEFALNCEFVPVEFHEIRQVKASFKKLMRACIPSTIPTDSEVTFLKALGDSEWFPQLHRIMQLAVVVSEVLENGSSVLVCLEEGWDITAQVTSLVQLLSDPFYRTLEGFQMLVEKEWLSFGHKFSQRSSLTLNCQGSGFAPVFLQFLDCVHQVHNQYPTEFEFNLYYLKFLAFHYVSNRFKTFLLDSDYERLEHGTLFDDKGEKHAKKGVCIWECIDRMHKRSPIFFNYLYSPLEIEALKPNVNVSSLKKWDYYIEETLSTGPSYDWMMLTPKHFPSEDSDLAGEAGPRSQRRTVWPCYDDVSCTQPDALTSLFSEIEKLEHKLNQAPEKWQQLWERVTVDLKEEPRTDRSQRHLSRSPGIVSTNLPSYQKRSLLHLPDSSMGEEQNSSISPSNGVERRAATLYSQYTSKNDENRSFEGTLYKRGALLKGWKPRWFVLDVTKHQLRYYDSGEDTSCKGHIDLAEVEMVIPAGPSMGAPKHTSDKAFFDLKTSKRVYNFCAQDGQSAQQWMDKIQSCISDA

Assay [1] has as its target GST-Rab35 (mouse) (UniProt Q6PHN9). Description: pull-down; GST-Rab35•GTP; MTM1, MTMR1 or MTMR2 co-expressed with MTMR5 (Supplementary Fig. 1d-f); only the target purified.
The target of assay [2] is eGFP-Rab35CA (Q67L), GTP-locked, constitutively active (mouse) (UniProt Q6PHN9). Description: co-IP; eGFP-Rab35CA or -DN captured on eGFP-Trap_MA beads from lysates of HEK293T cells co-expressing MTMR13 constructs, 24 h after transfection; 90 min at 4 °C; immunoblot.
In assay [3] the target is eGFP-Rab35DN (S22N), GDP-locked, dominant-negative (mouse) (UniProt Q6PHN9). The description is as above.
In assay [4] the target is GST-Rab1A (UniProt P62820). Description: pull-down; 100 µg GST-Rab fusion on GST-bind beads loaded with 1 mM GDP; lysates of transfected HEK293T cells; 2 h at 4 °C; immunoblot; only the target purified.
The target of assay [5] is GST-Rab35 (mouse) (UniProt Q6PHN9). Description: pull-down; immobilised active GST-Rab35•GTP; lysates of HEK293T cells co-expressing eGFP-MTM1, -MTMR1 or -MTMR2 with FLAG-MTMR13; immunoblot; only the target purified.
Assay [6] has as its target GST-Rab1A (UniProt P62820). Description: pull-down; 100 µg GST-Rab fusion on GST-bind beads loaded with 1 mM GTPγS; lysates of HEK293T cells overexpressing one tagged MTMR on its own; 2 h at 4 °C; immunoblot for eGFP or FLAG; only the target purified.
Assay [7] deals with GST-Rab35 (mouse) (UniProt Q6PHN9). The assay is described as above.
In assay [8] the target is GFP-Rab35endo (endogenous Rab35 tagged with GFP in TALEN-edited knock-in HeLa cells) (human (endogenous in HeLa)) (UniProt Q15286). Description: co-IP; endogenous eGFP-Rab35 captured on eGFP-Trap_MA beads from lysates of KI HeLa cells expressing mCherry-MTMR13 or its domains; 90 min at 4 °C; immunoblot.

Results are given in words; binding and its absence hold for the method and conditions named. In cells and extracts the contact can be indirect. Some results given as binding are weak or reduced against the parent protein; the word gives no strength.

For the substance “MTMR5 co-expressed with eGFP-tagged active MTMRs (mCherry-MTMR5) (from UniProt O95248 1-1868)”, the binding result with GST-Rab35 (mouse) [1] was “binds”. In the case of “MTMR13ΔDENN (DENN-domain truncation mutant of MTMR13, aa493-1849) (from UniProt Q86WG5 493-1849) (domain or fragment)”, the binding entry in assay [2] is on record as “binds”; in assay [3] it was “no binding”. With “N-terminally FLAG-tagged MTMR13 (from UniProt Q86WG5 1-1849)”, the binding result in the assay with GST-Rab1A [4] is listed as “no binding”; with GST-Rab35 (mouse) [5] it was “binds”; in the assay with GST-Rab1A [6] it was “no binding”; with GST-Rab35 (mouse) [7] it was “binds”. Regarding eGFP-MTMR5 (from UniProt O95248 1-1868), the binding entry in the assay with GST-Rab35 (mouse) [7] is reported as “binds”. In the case of “mCherry-MTMR13 (full length) (from UniProt Q86WG5 1-1849)”, the binding result in assay [8] was “binds”.

In the case of “mCherry-tagged MTMR13 phosphatase (PTP) domain (aa1100-1591) (from UniProt Q86WG5 1100-1591) (domain or fragment)”, the binding entry in assay [8] was “binds”.
